In US9359342B2, “Protein disulfide isomerase inhibiting anticancer agents” (THE CLEVELAND CLINIC FOUNDATION, priority 2013, dated 2016):
For at least one compound, name, drawing or mass did not settle the structure.

Assays:
MM cell lines = assay: Cytotoxicity in MM cell line panel (trypan blue exclusion, Vicell); format: cell-based; details: all 8 MM cell lines tested, 72 h
Method: (§1) FIGS. 2(A-B) provide a graph and immunoblot showing the effect of CCF642 on cancer and protein ubiquitination, with FIG. 2(A) showing the activity of CCF642 against a panel of MM and lymphoma cells. Seventy two hours after CCF642 administration, the IC50 by trypan blue exclusion (Vicell™) is <1 μM for all MM and all but one lymphoma line. Normal bone marrow (NL BM) tolerated CCF642; myeloid cells were less sensitive, especially GDM1, with E3 ligase domain mutation of c-CBL and FIG. 2(B) showing that an increase in protein ubiquitination is accompanied by loss of myeloma survival factors in MM cells Immunoblots of MM1.S cells show rise followed by decrease of protein ubiquitination with loss of MM survival factors.
(§2) Cell lines: Multiple myeloma cell lines MM1.S, MM1.R, NCI-H929 were obtained from ATCC. MM cell lines KMS-12-PE and KMS-12-BM were from the JCRB, JJN-3 from DSMZ, and 5TGM1-luc cells were from Dr. Yoneda at the University of Texas Health Science at San Antonio. HRMM.09 cells were generated in the inventor's lab from a patient who developed refractory myeloma after treatment with steroids, IMiD, proteasome inhibitors, DNA alkylators, and anthracyclines. MM1.S-luc and HRMM.09-luc were generated in the inventor's laboratory by transduction with Cignal™ firefly luciferase control lentivirus obtained from Qiagen™. Lymphoma cells were generated by Mitchell Smith. […]

lymphoma cell lines = assay: Cytotoxicity in lymphoma cell line panel (trypan blue exclusion, Vicell); format: cell-based; details: 6 of 7 (all but one) lymphoma lines, 72 h
Method: as §1, §2

5TGM1-luc myeloma cells = assay: Syngeneic 5TGM1-luc myeloma mouse model; format: in vivo, C57BL/KaLwRij mice; details: 25 mg/kg in DMSO IP three times a week
USP28 = target: T1, USP28 (Homo sapiens, UniProt Q96RU2); assay: USP28 polyubiquitin cleavage assay; format: biochemical
T1 construct: purchased Enzo life sciences and Biovision (general reagent statement)
T1 sequence (Q96RU2 1-1077): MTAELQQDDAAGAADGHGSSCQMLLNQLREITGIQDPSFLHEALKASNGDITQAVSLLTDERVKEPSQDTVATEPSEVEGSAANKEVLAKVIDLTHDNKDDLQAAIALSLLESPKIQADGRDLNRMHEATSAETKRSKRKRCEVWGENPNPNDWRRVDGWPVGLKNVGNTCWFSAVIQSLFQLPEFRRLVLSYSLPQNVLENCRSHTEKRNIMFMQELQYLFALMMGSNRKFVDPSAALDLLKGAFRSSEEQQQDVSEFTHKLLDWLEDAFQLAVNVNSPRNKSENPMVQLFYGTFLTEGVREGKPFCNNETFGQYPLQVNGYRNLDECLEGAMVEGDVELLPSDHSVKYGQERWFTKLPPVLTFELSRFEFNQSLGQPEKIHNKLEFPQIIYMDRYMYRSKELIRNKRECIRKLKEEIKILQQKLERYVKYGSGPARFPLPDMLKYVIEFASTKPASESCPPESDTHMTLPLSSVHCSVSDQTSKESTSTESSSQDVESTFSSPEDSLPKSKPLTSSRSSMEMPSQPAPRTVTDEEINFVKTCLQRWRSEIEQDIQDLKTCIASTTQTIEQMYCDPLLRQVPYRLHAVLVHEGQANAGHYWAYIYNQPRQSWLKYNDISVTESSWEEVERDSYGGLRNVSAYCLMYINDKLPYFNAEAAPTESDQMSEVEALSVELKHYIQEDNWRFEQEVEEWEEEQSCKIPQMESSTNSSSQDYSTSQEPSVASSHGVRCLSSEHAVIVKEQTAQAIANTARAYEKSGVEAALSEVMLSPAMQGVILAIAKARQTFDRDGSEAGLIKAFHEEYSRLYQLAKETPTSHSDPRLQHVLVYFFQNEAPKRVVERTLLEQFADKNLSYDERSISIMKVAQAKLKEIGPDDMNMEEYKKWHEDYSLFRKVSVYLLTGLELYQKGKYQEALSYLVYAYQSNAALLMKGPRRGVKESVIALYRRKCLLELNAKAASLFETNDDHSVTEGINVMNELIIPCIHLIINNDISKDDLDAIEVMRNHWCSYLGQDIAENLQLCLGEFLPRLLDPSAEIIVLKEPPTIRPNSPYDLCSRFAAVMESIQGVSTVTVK

HSP70 = HSP70 chaperone assay (rearrangement of partially denatured luciferase); format: biochemical
UBA1 = target: T2, UBA1 (Homo sapiens, UniProt P22314); assay: Binding to ubiquitin activating enzyme UBA1; details: reversed by ATP and ubiquitin
T2 sequence (P22314 1-1058): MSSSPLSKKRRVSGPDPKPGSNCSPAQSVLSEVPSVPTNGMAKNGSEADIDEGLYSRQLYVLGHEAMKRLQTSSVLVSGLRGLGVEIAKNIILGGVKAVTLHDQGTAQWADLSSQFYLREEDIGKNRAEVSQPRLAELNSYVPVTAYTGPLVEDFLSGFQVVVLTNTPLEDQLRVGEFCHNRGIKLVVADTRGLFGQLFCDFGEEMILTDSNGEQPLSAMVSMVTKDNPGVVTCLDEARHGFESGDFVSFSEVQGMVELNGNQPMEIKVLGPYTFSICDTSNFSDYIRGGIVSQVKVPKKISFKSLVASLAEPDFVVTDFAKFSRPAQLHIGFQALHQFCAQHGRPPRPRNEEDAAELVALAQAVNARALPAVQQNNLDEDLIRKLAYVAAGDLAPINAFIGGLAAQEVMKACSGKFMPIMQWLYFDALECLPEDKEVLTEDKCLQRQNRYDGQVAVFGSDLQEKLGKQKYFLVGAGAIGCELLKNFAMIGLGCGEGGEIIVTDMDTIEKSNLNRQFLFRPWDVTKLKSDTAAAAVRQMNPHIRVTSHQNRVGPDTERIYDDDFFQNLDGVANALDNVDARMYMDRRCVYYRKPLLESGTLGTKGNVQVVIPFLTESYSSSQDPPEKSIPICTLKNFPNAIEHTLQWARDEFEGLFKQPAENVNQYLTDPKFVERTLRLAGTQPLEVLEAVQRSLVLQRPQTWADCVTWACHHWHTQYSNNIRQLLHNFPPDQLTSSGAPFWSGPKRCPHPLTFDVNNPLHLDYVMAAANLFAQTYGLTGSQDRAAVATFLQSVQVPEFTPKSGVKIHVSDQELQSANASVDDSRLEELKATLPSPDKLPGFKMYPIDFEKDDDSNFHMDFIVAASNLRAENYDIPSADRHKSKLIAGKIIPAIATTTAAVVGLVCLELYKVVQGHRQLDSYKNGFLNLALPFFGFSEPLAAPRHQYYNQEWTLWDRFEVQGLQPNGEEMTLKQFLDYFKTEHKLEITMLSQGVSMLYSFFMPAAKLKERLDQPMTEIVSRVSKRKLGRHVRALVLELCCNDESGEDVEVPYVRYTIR

COc1ccc(N2C(=O)/C(=C/c3ccc([N+](=O)[O-])s3)SC2=S)cc1 [642-Parent]
IC50 in MM cell lines (MM cell lines): sub-μM
IC50 in lymphoma cell lines (lymphoma cell lines): sub-μM
luciferase signal and survival vs bortezomib (5TGM1-luc myeloma cells): suppressed luciferase signal gain and prolonged life of mice about as much as bortezomib
inhibition of USP28 mediated cleavage of ubiquitin 5-7 mers (USP28): did not inhibit
inhibition of reactivation of luciferase activity by HSP70 (HSP70): did not inhibit
binding to UBA1 (UBA1): covalent, cysteine dependent binding
